Results as given in EP2948433B1, “ATGLISTATIN AS LIPASE INHIBITOR” (Technische Universität Graz, priority 2013, dated 2014).

Assay: Inhibition of lipolysis in vivo, oral gavage in fasted mice, plasma parameters
Design: species or system C57BI/6J mice
Settings: 200 µmol/kg oral gavage, after 8 h, mean ± S.D., n = 7
Protocol: • Figure 1. Structure of compounds 1 to 3 (reference) and compound 4 (atglistatin) and effect on ATGL activity. For determination of lipase activity, lysates of E. coli overexpressing recombinant strep-tagged ATGL and CGI-58 were incubated with a substrate containing radiolabeled [9,10-3H(N)]-triolein. Subsequently, FA were extracted and quantified by liquid scintillation counting. Lysates of cells expressing empty vector were set as blank. Inhibitors were solubilized in DMSO and added at the indicated concentrations. DMSO alone was used as negative control. (A) Structure and IC50 values of compounds 1-4. (B) Dose-dependent inhibition of ATGL in the presence of compound 3 and 4. […] (C) Lineweaver-Burk plots for kinetic analysis of ATGL inhibition. Experiments were performed at varying concentrations of substrate (0.05 - 3 mM) in presence and absence of compound 4 (Atglistatin). […] Data are presented as mean +/-S.D. of triplicate determinations. Data for compound 4 are representative for at least three independent experiments. • Figure 2. Selectivity of Atglistatin. Lipase activity of ATGL, HSL, lipoprotein lipase, and pancreatic lipase was determined using triolein as substrate. MGL activity was detected in the presence of rac-(1,3)-monooleoylglycerol as substrate. Inhibitors were solubilized in DMSO and added at the indicated concentrations. DMSO alone was used as negative control. (A) Dose-dependent inhibition of TG hydrolase activity in WAT lysates obtained from wild-type and ATGL-ko mice. (B) Inhibition of TG hydrolase activity in wild-type WAT lysates by Atglistatin (40 µM) and by the HSL inhibitor Hi 76-0079 (20 µM). (C) Effect of Atglistatin on murine MGL (purified from E. coli), and murine HSL (overexpressed in COS-7 lysates) activity. […] The release of FA (A) and glycerol (B) in the media was determined using commercial kits. […] At the indicated timepoints blood was taken retroorbitally and plasma parameters were measured using commercial kits. […] 8 h after gavage blood was taken retroorbitally and plasma parameters were measured using commercial kits. […]

Work on `CN(C)C(=O)Nc1cccc(-c2ccc(N(C)C)cc2)c1` [Atglistatin, atglistatin] yielded a Glucose of 86.85 ± 12.19 mg/dL, a CE (plasma (text: total cholesterol)) of 3.12 ± 0.25 mmol/L and an Insulin (plasma) of 0.18 ± 0.07 ng/mL.
